# Data as given in PubChem BioAssay AID1259308 (NCATS, 2017).
# Aim: 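Knock-downs that increase output of a recombinant reporter protein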 (primary screen)
# Cell system: human HEK293 embryonic kidney cells stably expressing firefly luciferase (HEK-CMV-Luc2-Hygro)
# Reagent: single siRNA against human genes, 0.8 pmol siRNA per well
# Time to read-out: 72 h
# Detection: 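Reporter luminescence and viable-cell signal on separate replicate plates, given as percent of non-targeting control and median/MAD z-scores, plus per-cell luciferase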
# Direction: total luciferase, z-score: higher = more reporter protein produced
# Active means: 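An siRNA counts as active if its total luciferase robust z-score exceeds 3; genes with two or more such siRNAs out of three were retested with fresh siRNAs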
# Meaning of the calls: active = raised luciferase; inactive = no rise
# Here is one part, drawn at random, of about 59,000 deposited reagents. In the full data, about 1,510 (2.6%) got an active call. 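Calls use total luciferase alone and ignore viability, so some active siRNAs may act by altering cell number.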 Reagents against one gene are numbered here. Not all columns of the deposit are shown. Reagent sequences are not shown.
gene knocked down,reagent,"total luciferase, z-score",Call
SELENOW,1,1.23,inactive
SELENOW,2,-0.0887,inactive
SELENOW,3,-1.29,inactive
CTNND1,1,-0.396,inactive
CTNND1,2,-0.897,inactive
CTNND1,3,1.67,inactive
AMDHD2,1,-1.29,inactive
AMDHD2,2,0.646,inactive
AMDHD2,3,0.0528,inactive
MCTS1,1,0.481,inactive
MCTS1,2,1.35,inactive
MCTS1,3,-1.01,inactive
FOXRED1,1,-0.536,inactive
FOXRED1,2,-1.54,inactive
FOXRED1,3,-0.557,inactive

Records listed so far whose target name starts with S or s (3):
gene knocked down,reagent,"total luciferase, z-score",Call
SELENOW,1,1.23,inactive
SELENOW,2,-0.0887,inactive
SELENOW,3,-1.29,inactive

Continued.
gene knocked down,reagent,"total luciferase, z-score",Call
ZNF143,1,-0.964,inactive
ZNF143,2,0.227,inactive
ZNF143,3,-0.539,inactive
RNASE4,1,1.27,inactive
RNASE4,2,0.752,inactive
RNASE4,3,-0.683,inactive
NUDT21,1,-0.721,inactive
NUDT21,2,7.21,active
NUDT21,3,0.275,inactive
